Results deposited as PubChem BioAssay AID1259308 (NCATS, 2017)
Test: 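Candidate targets for better recombinant protein yield in mammalian cells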 (primary screen). System: human HEK293 embryonic kidney cells stably expressing firefly luciferase (HEK-CMV-Luc2-Hygro). Knock-down reagent: single siRNA against human genes, 0.8 pmol siRNA per well. Timing: 72 h. Measurement: 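Reporter luminescence and viable-cell signal on separate replicate plates, given as percent of non-targeting control and median/MAD z-scores, plus per-cell luciferase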. Direction: total luciferase, z-score: higher = more reporter protein produced. Hit rule: 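Active when the median/MAD z-score for overall luciferase is greater than 3; a gene was taken forward for validation with new siRNAs if at least two of its three siRNAs passed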. Meaning of the calls: active = raised luciferase; inactive = no rise.
In all, the deposit lists about 59,000 reagents; this is an unselected part. In the full data, about 1,510 (2.6%) got an active call. 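Calls use total luciferase alone and ignore viability, so some active siRNAs may act by altering cell number.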 Entries without a mark were called inactive. The numbers tell different reagents against one gene apart. Not all columns of the deposit are shown.

total luciferase, z-score, by target and reagent
ARID1A (AT-rich interaction domain 1A): #1 0.394; #2 -1.03; #3 -0.393
FRYL (FRY like transcription coactivator): #1 1.03; #2 -0.549; #3 -0.226; #4 1.51; #5 -0.364; #6 0.612
TAF6L (TATA-box binding protein associated factor 6 like): #1 2.31; #2 0.466; #3 0.683
PCDH7 (protocadherin 7): #1 1.62; #2 0.731; #3 -0.133
TPCN1 (two pore segment channel 1): #1 -0.539; #2 0.208; #3 -0.155
H3C7 (H3 clustered histone 7): #1 2.87; #2 1.24; #3 -1.07
OR13C5 (olfactory receptor family 13 subfamily C member 5): #1 0.154; #2 0.315; #3 -0.535

Sorted by “total luciferase, z-score” (ascending): 2 of the entries above.
target	reagent no.	total luciferase, z-score
ARID1A (AT-rich interaction domain 1A)	3	-0.393
FRYL (FRY like transcription coactivator)	1	1.03
